Data reported in PMC11339399.
These are yes or no findings as the source states them, for the method shown. In cells and extracts the contact can be indirect. Some results given as binding are weak or reduced against the parent protein; the word gives no strength.

Chains of the proteins cited; added tags and fusions are not shown.
UniProt P37802: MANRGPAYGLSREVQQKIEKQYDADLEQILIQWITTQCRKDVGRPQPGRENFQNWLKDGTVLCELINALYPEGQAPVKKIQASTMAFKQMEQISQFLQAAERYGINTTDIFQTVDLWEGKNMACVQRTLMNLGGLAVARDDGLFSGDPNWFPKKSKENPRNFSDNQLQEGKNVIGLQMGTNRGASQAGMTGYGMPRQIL
UniProt P67809: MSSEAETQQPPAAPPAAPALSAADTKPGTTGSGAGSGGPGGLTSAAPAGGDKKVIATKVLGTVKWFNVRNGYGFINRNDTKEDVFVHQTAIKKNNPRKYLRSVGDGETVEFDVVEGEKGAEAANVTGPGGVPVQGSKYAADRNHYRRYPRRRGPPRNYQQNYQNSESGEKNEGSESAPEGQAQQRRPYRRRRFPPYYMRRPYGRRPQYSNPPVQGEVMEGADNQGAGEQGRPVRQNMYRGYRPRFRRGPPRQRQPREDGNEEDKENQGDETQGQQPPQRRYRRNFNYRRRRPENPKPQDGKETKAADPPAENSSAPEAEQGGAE
UniProt P48436: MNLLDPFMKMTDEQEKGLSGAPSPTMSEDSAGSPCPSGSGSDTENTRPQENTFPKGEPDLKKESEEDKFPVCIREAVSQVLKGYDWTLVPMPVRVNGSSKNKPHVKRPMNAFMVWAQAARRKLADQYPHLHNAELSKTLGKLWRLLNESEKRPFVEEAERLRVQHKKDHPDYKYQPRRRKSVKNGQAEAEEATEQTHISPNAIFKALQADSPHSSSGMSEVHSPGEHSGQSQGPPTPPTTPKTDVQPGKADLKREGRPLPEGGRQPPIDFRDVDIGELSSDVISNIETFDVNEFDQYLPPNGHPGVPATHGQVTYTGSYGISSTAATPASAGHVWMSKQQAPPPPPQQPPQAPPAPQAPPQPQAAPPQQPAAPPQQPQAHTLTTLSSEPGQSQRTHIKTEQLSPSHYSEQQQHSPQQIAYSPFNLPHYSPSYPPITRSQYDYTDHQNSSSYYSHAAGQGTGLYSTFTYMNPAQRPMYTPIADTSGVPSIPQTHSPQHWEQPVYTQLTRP
UniProt P01106: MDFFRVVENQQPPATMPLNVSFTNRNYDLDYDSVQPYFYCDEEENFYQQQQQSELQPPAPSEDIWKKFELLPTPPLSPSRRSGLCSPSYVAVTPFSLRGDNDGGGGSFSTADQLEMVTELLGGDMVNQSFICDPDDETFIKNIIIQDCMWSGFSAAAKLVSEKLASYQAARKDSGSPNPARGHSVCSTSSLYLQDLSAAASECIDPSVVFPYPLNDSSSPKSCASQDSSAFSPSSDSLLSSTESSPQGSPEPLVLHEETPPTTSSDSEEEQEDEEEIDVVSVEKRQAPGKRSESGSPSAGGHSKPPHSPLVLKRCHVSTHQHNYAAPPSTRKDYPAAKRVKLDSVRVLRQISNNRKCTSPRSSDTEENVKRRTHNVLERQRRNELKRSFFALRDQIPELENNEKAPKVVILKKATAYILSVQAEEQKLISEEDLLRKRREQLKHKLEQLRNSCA

What was measured:
[1] = target: TAGLN2 (human) (UniProt P37802); experiment: co-IP; Pierce Co-IP kit; antibodies against the proteins themselves (anti-TAGLN2, anti-SOX9, anti-c-Myc, anti-SP1, anti-YBX1) coupled to resin; cell lysate overnight at 4 °C; Western blot
[2] = target: YBX1 (human (endogenous in the paper's human cell lines; line not named)) (UniProt P67809); experiment: as above
[3] = target: Flag-YBX1 (UniProt P67809); experiment: co-IP; Pierce Co-IP kit; anti-Flag or anti-HA coupled to resin; lysates of transfected cells (BGC-823 for Flag-TAGLN2 and HA-YBX1, wild type or fragments); overnight at 4 °C; Western blot

binding [1] | binding [2] | binding [3] | Substance
binds | – | – | SOX9 (from UniProt P48436 1-509)
binds | – | – | c-Myc (from UniProt P01106 1-454)
– | binds | binds | TAGLN2 (from UniProt P37802 1-199)
